These are yes or no findings as the source states them, for the method shown. Binding seen in cells or lysates may run through a third protein. Some entries that bind do so weakly or less than the wild type.

By UniProt entry, the sequences of proteins in these tests, tags left out.
UniProt P68400: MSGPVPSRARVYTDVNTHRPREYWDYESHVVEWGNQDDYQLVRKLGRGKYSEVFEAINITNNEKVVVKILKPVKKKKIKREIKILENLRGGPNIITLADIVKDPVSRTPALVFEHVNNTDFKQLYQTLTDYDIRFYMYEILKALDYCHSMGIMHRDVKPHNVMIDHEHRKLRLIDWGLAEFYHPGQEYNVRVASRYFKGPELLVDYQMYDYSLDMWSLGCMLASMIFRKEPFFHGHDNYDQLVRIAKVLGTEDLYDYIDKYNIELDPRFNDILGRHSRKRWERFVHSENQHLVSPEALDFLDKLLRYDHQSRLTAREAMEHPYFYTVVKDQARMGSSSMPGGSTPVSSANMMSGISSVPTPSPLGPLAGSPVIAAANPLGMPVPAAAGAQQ
UniProt Q14914: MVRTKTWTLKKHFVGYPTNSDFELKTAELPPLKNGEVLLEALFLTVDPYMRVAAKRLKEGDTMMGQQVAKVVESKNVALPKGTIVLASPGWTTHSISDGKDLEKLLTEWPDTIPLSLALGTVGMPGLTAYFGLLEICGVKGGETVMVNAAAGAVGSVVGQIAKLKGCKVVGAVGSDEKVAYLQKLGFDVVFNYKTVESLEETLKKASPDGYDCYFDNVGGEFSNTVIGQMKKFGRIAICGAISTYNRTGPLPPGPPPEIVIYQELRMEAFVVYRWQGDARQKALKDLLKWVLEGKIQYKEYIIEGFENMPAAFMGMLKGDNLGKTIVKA

This assay addresses CK2α1 (UniProt P68400). The experiment in a line: co-IP.

As to PTGR1 (from UniProt Q14914 1-329), the binding entry is on record as “binds”.
